Data: article PMC7242444

The chains behind the UniProt entries cited, without tags or fusion partners. Residues count along the entry.
UniProt P10244: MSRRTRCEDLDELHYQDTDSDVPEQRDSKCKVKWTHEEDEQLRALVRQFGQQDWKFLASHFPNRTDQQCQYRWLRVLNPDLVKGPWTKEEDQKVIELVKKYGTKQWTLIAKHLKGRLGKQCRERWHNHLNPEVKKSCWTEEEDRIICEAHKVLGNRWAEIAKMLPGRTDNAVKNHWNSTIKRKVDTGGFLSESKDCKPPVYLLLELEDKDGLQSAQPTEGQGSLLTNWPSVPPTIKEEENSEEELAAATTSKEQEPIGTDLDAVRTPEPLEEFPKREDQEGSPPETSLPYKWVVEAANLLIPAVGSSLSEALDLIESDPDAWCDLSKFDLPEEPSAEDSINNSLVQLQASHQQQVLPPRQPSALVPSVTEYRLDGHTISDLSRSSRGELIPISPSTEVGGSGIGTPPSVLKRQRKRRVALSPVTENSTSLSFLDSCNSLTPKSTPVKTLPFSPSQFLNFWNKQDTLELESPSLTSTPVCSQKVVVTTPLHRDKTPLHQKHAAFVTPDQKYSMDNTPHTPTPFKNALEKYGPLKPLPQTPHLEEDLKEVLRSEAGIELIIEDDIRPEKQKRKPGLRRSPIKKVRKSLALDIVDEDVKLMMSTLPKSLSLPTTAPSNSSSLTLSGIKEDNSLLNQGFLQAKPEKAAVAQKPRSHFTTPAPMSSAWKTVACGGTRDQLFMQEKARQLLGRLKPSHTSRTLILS
UniProt Q5VZL5, residues 33-1548: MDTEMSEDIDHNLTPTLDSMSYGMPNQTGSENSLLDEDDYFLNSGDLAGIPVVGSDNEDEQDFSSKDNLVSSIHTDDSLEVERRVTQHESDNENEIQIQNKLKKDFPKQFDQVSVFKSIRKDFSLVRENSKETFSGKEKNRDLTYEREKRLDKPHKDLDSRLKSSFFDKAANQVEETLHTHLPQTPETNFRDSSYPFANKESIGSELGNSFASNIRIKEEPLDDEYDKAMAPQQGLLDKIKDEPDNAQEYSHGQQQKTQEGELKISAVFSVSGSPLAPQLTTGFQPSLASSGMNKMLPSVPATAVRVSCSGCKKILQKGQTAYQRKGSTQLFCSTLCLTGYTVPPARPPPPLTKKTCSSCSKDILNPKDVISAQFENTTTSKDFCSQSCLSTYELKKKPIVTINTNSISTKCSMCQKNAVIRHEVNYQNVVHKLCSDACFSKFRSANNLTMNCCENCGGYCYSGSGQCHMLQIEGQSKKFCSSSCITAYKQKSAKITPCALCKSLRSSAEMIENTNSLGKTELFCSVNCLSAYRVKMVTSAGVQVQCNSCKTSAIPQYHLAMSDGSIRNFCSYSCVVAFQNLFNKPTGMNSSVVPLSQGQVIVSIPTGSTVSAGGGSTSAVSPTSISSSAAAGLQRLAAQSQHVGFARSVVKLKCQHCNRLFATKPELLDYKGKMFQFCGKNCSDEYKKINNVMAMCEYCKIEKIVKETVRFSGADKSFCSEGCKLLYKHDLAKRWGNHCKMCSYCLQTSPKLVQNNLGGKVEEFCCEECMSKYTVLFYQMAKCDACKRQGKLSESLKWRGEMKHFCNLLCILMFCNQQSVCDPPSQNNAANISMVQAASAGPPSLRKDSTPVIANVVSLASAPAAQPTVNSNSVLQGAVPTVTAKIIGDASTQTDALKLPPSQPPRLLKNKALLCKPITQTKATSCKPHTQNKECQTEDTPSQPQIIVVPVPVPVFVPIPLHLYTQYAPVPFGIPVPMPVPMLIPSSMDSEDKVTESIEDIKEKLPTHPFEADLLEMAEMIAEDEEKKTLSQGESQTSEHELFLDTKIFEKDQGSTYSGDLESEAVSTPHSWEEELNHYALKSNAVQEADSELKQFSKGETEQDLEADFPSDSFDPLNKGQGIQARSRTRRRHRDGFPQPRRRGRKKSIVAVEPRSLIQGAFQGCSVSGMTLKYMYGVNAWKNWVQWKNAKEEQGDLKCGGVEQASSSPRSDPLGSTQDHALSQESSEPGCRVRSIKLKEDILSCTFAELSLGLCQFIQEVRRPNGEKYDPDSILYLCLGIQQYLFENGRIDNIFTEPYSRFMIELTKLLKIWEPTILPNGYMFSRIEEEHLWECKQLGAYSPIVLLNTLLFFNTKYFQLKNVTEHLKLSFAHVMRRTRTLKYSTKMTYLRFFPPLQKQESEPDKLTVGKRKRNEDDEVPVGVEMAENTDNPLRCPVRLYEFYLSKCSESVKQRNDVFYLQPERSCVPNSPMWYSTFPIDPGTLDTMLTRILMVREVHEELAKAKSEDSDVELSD

What was measured:
GFP-B-MYB (human) = GFP-B-MYB (human) (UniProt P10244); experiment: affinity purification with mass spectrometry; extracts (ELB buffer, 120 mM NaCl, 0.2% NP-40) of HEK293T cells stably expressing the GFP fusion bait bound to magnetic GFP-trap beads; on-bead trypsin digestion, LC-MS/MS; cells expressing only GFP as control; three independent experiments
GFP-ZMYM4 (human) = GFP-ZMYM4 (human) (UniProt Q5VZL5); experiment: as above

binding (GFP-B-MYB (human)): no binding
B1: P5CS (delta-1-pyrroline-5-carboxylate synthase), endogenous (protein, UniProt P54886 1-795)
chain: MLSQVYRCGFQPFNQHLLPWVKCTTVFRSHCIQPSVIRHVRSWSNIPFITVPLSRTHGKSFAHRSELKHAKRIVVKLGSAVVTRGDECGLALGRLASIVEQVSVLQNQGREMMLVTSGAVAFGKQRLRHEILLSQSVRQALHSGQNQLKEMAIPVLEARACAAAGQSGLMALYEAMFTQYSICAAQILVTNLDFHDEQKRRNLNGTLHELLRMNIVPIVNTNDAVVPPAEPNSDLQGVNVISVKDNDSLAARLAVEMKTDLLIVLSDVEGLFDSPPGSDDAKLIDIFYPGDQQSVTFGTKSRVGMGGMEAKVKAALWALQGGTSVVIANGTHPKVSGHVITDIVEGKKVGTFFSEVKPAGPTVEQQGEMARSGGRMLATLEPEQRAEIIHHLADLLTDQRDEILLANKKDLEEAEGRLAAPLLKRLSLSTSKLNSLAIGLRQIAASSQDSVGRVLRRTRIAKNLELEQVTVPIGVLLVIFESRPDCLPQVAALAIASGNGLLLKGGKEAAHSNRILHLLTQEALSIHGVKEAVQLVNTREEVEDLCRLDKMIDLIIPRGSSQLVRDIQKAAKGIPVMGHSEGICHMYVDSEASVDKVTRLVRDSKCEYPAACNALETLLIHRDLLRTPLFDQIIDMLRVEQVKIHAGPKFASYLTFSPSEVKSLRTEYGDLELCIEVVDNVQDAIDHIHKYGSSHTDVIVTEDENTAEFFLQHVDSACVFWNASTRFSDGYRFGLGAEVGISTSRIHARGPVGLEGLLTTKWLLRGKDHVVSDFSEHGSLKYLHENLPIPQRNTN

binding (GFP-ZMYM4 (human)): binds
B2: ZMYM2, endogenous (protein, UniProt Q9UBW7 1-1377)
chain: MDTSSVGGLELTDQTPVLLGSTAMATSLTNVGNSFSGPANPLVSRSNKFQNSSVEDDDDVVFIEPVQPPPPSVPVVADQRTITFTSSKNEELQGNDSKITPSSKELASQKGSVSETIVIDDEEDMETNQGQEKNSSNFIERRPPETKNRTNDVDFSTSSFSRSKVNAGMGNSGITTEPDSEIQIANVTTLETGVSSVNDGQLENTDGRDMNLMITHVTSLQNTNLGDVSNGLQSSNFGVNIQTYTPSLTSQTKTGVGPFNPGRMNVAGDVFQNGESATHHNPDSWISQSASFPRNQKQPGVDSLSPVASLPKQIFQPSVQQQPTKPVKVTCANCKKPLQKGQTAYQRKGSAHLFCSTTCLSSFSHKPAPKKLCVMCKKDITTMKGTIVAQVDSSESFQEFCSTSCLSLYEDKQNPTKGALNKSRCTICGKLTEIRHEVSFKNMTHKLCSDHCFNRYRMANGLIMNCCEQCGEYLPSKGAGNNVLVIDGQQKRFCCQSCVSEYKQVGSHPSFLKEVRDHMQDSFLMQPEKYGKLTTCTGCRTQCRFFDMTQCIGPNGYMEPYCSTACMNSHKTKYAKSQSLGIICHFCKRNSLPQYQATMPDGKLYNFCNSSCVAKFQALSMQSSPNGQFVAPSDIQLKCNYCKNSFCSKPEILEWENKVHQFCSKTCSDDYKKLHCIVTYCEYCQEEKTLHETVNFSGVKRPFCSEGCKLLYKQDFARRLGLRCVTCNYCSQLCKKGATKELDGVVRDFCSEDCCKKFQDWYYKAARCDCCKSQGTLKERVQWRGEMKHFCDQHCLLRFYCQQNEPNMTTQKGPENLHYDQGCQTSRTKMTGSAPPPSPTPNKEMKNKAVLCKPLTMTKATYCKPHMQTKSCQTDDTWRTEYVPVPIPVPVYIPVPMHMYSQNIPVPTTVPVPVPVPVFLPAPLDSSEKIPAAIEELKSKVSSDALDTELLTMTDMMSEDEGKTETTNINSVIIETDIIGSDLLKNSDPETQSSMPDVPYEPDLDIEIDFPRAAEELDMENEFLLPPVFGEEYEEQPRPRSKKKGAKRKAVSGYQSHDDSSDNSECSFPFKYTYGVNAWKHWVKTRQLDEDLLVLDELKSSKSVKLKEDLLSHTTAELNYGLAHFVNEIRRPNGENYAPDSIYYLCLGIQEYLCGSNRKDNIFIDPGYQTFEQELNKILRSWQPSILPDGSIFSRVEEDYLWRIKQLGSHSPVALLNTLFYFNTKYFGLKTVEQHLRLSFGTVFRHWKKNPLTMENKACLRYQVSSLCGTDNEDKITTGKRKHEDDEPVFEQIENTANPSRCPVKMFECYLSKSPQNLNQRMDVFYLQPECSSSTDSPVWYTSTSLDRNTLENMLVRVLLVKDIYDKDNYELDEDTD

No constants are given. Whether binding was seen depends on the method and setting. In cells and extracts the contact can be indirect. Here binding means that the protein was enriched with, or labelled near, the bait; the list need not be complete. For some assays here: A no says only that the protein was not detected with the bait. One block for each binder: values may come before it.
